# Test results as given in the supplement of paper PMC8728848.
# The list shows a part of the results.
# B1: MIC2 (Toxoplasma gondii), S8F9G8 (protein)
# chain: MRLQREAVFGLMFACGMWMWPSEVAGGGWSIVDALRKRYDTSRGGDANGVDTSGVEDVIQSESAIGAAEGCTNQLDICFLIDSSGSIGIQNFRLVKQFLHTFLMVLPIGPEEVNNAVVTYSTDVHLQWDLQSPNAVDKQLAAHAVLDMPYKKGSTNTSDGLKACKQILFTGSRPGREHVPKLVIGMTDGESDSDFRTVRAAKEIRELGGIVTVLAVGHYVKHSECRSMCGCSGTSDDDSPCPLYLRADWGQLATAIKPMLKEVCKTLPQDAICSDWSAWSPCSVSCGDGSQIRTRTEVSAPQPGTPTCPDCPAPMGRTCVEQGGLEEIRECSAGVCAVDAGCGVWGEWSAWSASCGNATRKRERTRYNDPPPQGAGRRCENQDPPVLQEQTEEATLAPCITIPPTPPEWAAWSDCTVTCGGGNRHRVRNALPPGLGSQNGESDESLVSKLWPGTDLRQEEACNTSPCPINATCGQFEEWSTCSVSCGGGLKTRSRNPWNEDQQHGGLSCEQQHPGGRTETITCNPQACPVDERPGEWAEWGECSVTCGDGVRERRRGKSLVEAKFGGRTIDQQNEALPEDLKIKNVEYEPCSYPACGASCTYVWSDWNKCVCPMGYQARHAAVKFDYRNKPCDLPTFETKACSCGETNPVPSEGTTPGAPGATGPEQPNQRPLPEGSDENETPTNEEGEQSKKESGSGIAGAIAGGVIGGLILLGAAGGASYHYYLSSSVGSPSAEIEYEADDGATKVVMEEEKETLVPVDDDSDMWME
# Key:
# Test in all cases: glycan array binding signal (z-score within array); higher = stronger binding
# Details in all cases: glycan notation: IUPAC condensed, linker removed
# [1] = molecular target: Gal(b1-4)GlcNAc(a1-6)Gal(b1-4)GlcNAc
# How it was run: (§1)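 The Consortium for Functional Glycomics database supplied 3228 glycan arrays, of which those lacking an available protein sequence were dropped. The binding signal, a within-array Z-score, was averaged across arrays of the same protein sequence and across linkers. Negative scores can be read as non-binding.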
# [2] = molecular target: Gal(b1-4)GlcNAc(b1-2)Man(a1-3)Man(b1-4)GlcNAc(b1-4)GlcNAc
# How it was run: as §1
# [3] = molecular target: Gal(b1-4)GlcNAc(b1-2)Man(a1-3)[Gal(b1-4)GlcNAc(b1-2)Man(a1-6)]Man(b1-4)GlcNAc(b1-4)GlcNAc
# How it was run: as §1
# [4] = molecular target: Gal(b1-4)GlcNAc(b1-2)Man(a1-3)[Gal(b1-4)GlcNAc(b1-2)Man(a1-6)]Man(b1-4)GlcNAc(b1-4)[Fuc(a1-6)]GlcNAc
# How it was run: as §1
# [5] = molecular target: Gal(b1-4)GlcNAc(b1-2)Man(a1-3)[GlcNAc(b1-2)Man(a1-6)]Man(b1-4)GlcNAc(b1-4)GlcNAc
# How it was run: as §1
# [6] = molecular target: Gal(b1-4)GlcNAc(b1-2)Man(a1-3)[Man(a1-6)]Man(b1-4)GlcNAc(b1-4)GlcNAc
# How it was run: as §1
# [7] = molecular target: Gal(b1-4)GlcNAc(b1-2)Man(a1-6)Man(b1-4)GlcNAc(b1-4)GlcNAc
# How it was run: as §1
# [8] = molecular target: Gal(b1-4)GlcNAc(b1-2)Man(a1-6)[GlcNAc(b1-2)Man(a1-3)]Man(b1-4)GlcNAc(b1-4)GlcNAc
# How it was run: as §1
# [9] = molecular target: Gal(b1-4)GlcNAc(b1-2)Man(a1-6)[Man(a1-3)]Man(b1-4)GlcNAc(b1-4)GlcNAc
# How it was run: as §1
# [10] = molecular target: Gal(b1-4)GlcNAc(b1-2)[Gal(b1-4)GlcNAc(b1-4)]Man(a1-3)[Gal(b1-4)GlcNAc(b1-2)Man(a1-6)]Man(b1-4)GlcNAc(b1-4)GlcNAc
# How it was run: as §1
# [11] = molecular target: Gal(b1-4)GlcNAc(b1-2)[Gal(b1-4)GlcNAc(b1-4)]Man(a1-3)[Gal(b1-4)GlcNAc(b1-2)[Gal(b1-4)GlcNAc(b1-6)]Man(a1-6)]Man(b1-4)GlcNAc(b1-4)GlcNAc
# How it was run: as §1
# [12] = molecular target: Gal(b1-4)GlcNAc(b1-3)Gal(b1-3)GlcNAc
# How it was run: as §1
# [13] = molecular target: Gal(b1-4)GlcNAc(b1-3)Gal(b1-4)Glc
# How it was run: as §1
# [14] = molecular target: Gal(b1-4)GlcNAc(b1-3)Gal(b1-4)GlcNAc
# How it was run: as §1
# [15] = molecular target: Gal(b1-4)GlcNAc(b1-3)Gal(b1-4)GlcNAc(b1-3)Gal(b1-4)GlcNAc
# How it was run: as §1
# [16] = molecular target: Gal(b1-4)GlcNAc(b1-3)Gal(b1-4)[Fuc(a1-3)]GlcNAc(b1-3)Gal(b1-4)[Fuc(a1-3)]GlcNAc
# How it was run: as §1
# [17] = molecular target: Gal(b1-4)GlcNAc(b1-3)GalNAc
# How it was run: as §1
# [18] = molecular target: Gal(b1-4)GlcNAc(b1-3)[Gal(b1-4)GlcNAc(b1-6)]Gal(b1-4)GlcNAc
# How it was run: as §1
# [19] = molecular target: Gal(b1-4)GlcNAc(b1-3)[Gal(b1-4)GlcNAc(b1-6)]GalNAc
# How it was run: as §1
# [20] = molecular target: Gal(b1-4)GlcNAc(b1-3)[GlcNAc(b1-6)]Gal(b1-4)GlcNAc
# How it was run: as §1
# [21] = molecular target: Gal(b1-4)GlcNAc(b1-6)Gal(b1-4)GlcNAc
# How it was run: as §1
# [22] = molecular target: Gal(b1-4)GlcNAc(b1-6)GalNAc
# How it was run: as §1
# [23] = molecular target: Gal(b1-4)GlcNAc(b1-6)[Gal(b1-3)]GalNAc
# How it was run: as §1
# [24] = molecular target: Gal3S(b1-3)GalNAc
# How it was run: as §1
# [25] = molecular target: Gal3S(b1-3)GlcNAc
# How it was run: as §1
# [26] = molecular target: Gal3S(b1-3)[Fuc(a1-4)]GlcNAc
# How it was run: as §1
# [27] = molecular target: Gal3S(b1-4)Glc
# How it was run: as §1
# [28] = molecular target: Gal3S(b1-4)Glc6S
# How it was run: as §1
# [29] = molecular target: Gal3S(b1-4)GlcNAc
# How it was run: as §1
# [30] = molecular target: Gal3S(b1-4)GlcNAc6S
# How it was run: as §1
# [31] = molecular target: Gal3S(b1-4)[Fuc(a1-3)]Glc
# How it was run: as §1
# [32] = molecular target: Gal3S(b1-4)[Fuc(a1-3)]Glc6S
# How it was run: as §1
# [33] = molecular target: Gal3S4S(b1-4)GlcNAc
# How it was run: as §1
# [34] = molecular target: Gal3S6S(b1-4)GlcNAc
# How it was run: as §1
# [35] = molecular target: Gal3S6S(b1-4)GlcNAc6S
# How it was run: as §1
# [36] = molecular target: Gal4S(b1-4)GlcNAc
# How it was run: as §1
# [37] = molecular target: Gal4S6S(b1-4)GlcNAc
# How it was run: as §1
# [38] = molecular target: Gal6S(b1-4)Glc
# How it was run: as §1
# [39] = molecular target: Gal6S(b1-4)Glc6S
# How it was run: as §1
# [40] = molecular target: Gal6S(b1-4)GlcNAc
# How it was run: as §1
# [41] = molecular target: Gal6S(b1-4)GlcNAc6S
# How it was run: as §1
# [42] = molecular target: GalNAc(a1-3)Gal
# How it was run: as §1
# [43] = molecular target: GalNAc(a1-3)GalNAc
# How it was run: as §1
# [44] = molecular target: GalNAc(a1-3)GalNAc(a1-3)Gal(a1-4)Gal(b1-4)GlcNAc
# How it was run: as §1
# [45] = molecular target: GalNAc(b1-3)Gal
# How it was run: as §1
# [46] = molecular target: GalNAc(b1-3)Gal(a1-4)Gal(b1-4)GlcNAc
# How it was run: as §1
# [47] = molecular target: GalNAc(b1-3)Gal(a1-4)Gal(b1-4)GlcNAc(b1-3)Gal(b1-4)Glc
# How it was run: as §1
# [48] = molecular target: GalNAc(b1-3)Gal(a1-6)Gal(b1-4)Glc
# How it was run: as §1
# [49] = molecular target: GalNAc(b1-3)GalNAc
# How it was run: as §1
# [50] = molecular target: GalNAc(b1-4)GlcNAc
# How it was run: as §1
# [51] = molecular target: GalNAc(b1-4)GlcNAc(b1-2)Man(a1-3)[GalNAc(b1-4)GlcNAc(b1-2)Man(a1-6)]Man(b1-4)GlcNAc(b1-4)GlcNAc
# How it was run: as §1
# [52] = molecular target: Glc(a1-4)Glc
# How it was run: as §1
# [53] = molecular target: Glc(a1-6)Glc(a1-6)Glc
# How it was run: as §1
# [54] = molecular target: Glc(b1-4)Glc
# How it was run: as §1
# [55] = molecular target: Glc(b1-6)Glc
# How it was run: as §1
# [56] = molecular target: GlcA(b1-3)Gal
# How it was run: as §1
# [57] = molecular target: GlcA(b1-3)GlcNAc
# How it was run: as §1
# [58] = molecular target: GlcA(b1-6)Gal
# How it was run: as §1
# [59] = molecular target: GlcNAc(a1-3)Gal(b1-4)GlcNAc
# How it was run: as §1
# [60] = molecular target: GlcNAc(a1-4)Gal(b1-3)GlcNAc
# How it was run: as §1
binder,measurement,setting,value
B1,glycan array binding signal (z-score),[1],-0.72
same,glycan array binding signal (z-score),[2],-0.709
same,glycan array binding signal (z-score),[3],0.515
same,glycan array binding signal (z-score),[4],1.15
same,glycan array binding signal (z-score),[5],-0.592
same,glycan array binding signal (z-score),[6],-0.176
same,glycan array binding signal (z-score),[7],0.352
same,glycan array binding signal (z-score),[8],-0.816
same,glycan array binding signal (z-score),[9],0.017
same,glycan array binding signal (z-score),[10],-0.051
same,glycan array binding signal (z-score),[11],-0.849
same,glycan array binding signal (z-score),[12],-0.848
same,glycan array binding signal (z-score),[13],0.224
same,glycan array binding signal (z-score),[14],0.542
same,glycan array binding signal (z-score),[15],-0.169
same,glycan array binding signal (z-score),[16],-0.501
same,glycan array binding signal (z-score),[17],-0.345
same,glycan array binding signal (z-score),[18],-0.785
same,glycan array binding signal (z-score),[19],-0.129
same,glycan array binding signal (z-score),[20],-0.941
same,glycan array binding signal (z-score),[21],0.294
same,glycan array binding signal (z-score),[22],-0.624
same,glycan array binding signal (z-score),[23],0.853
same,glycan array binding signal (z-score),[24],-0.688
same,glycan array binding signal (z-score),[25],-0.484
same,glycan array binding signal (z-score),[26],-0.555
same,glycan array binding signal (z-score),[27],0.547
same,glycan array binding signal (z-score),[28],0.756
same,glycan array binding signal (z-score),[29],1.89
same,glycan array binding signal (z-score),[30],2.66
same,glycan array binding signal (z-score),[31],0.795
same,glycan array binding signal (z-score),[32],4.19
same,glycan array binding signal (z-score),[33],3.35
same,glycan array binding signal (z-score),[34],2.02
same,glycan array binding signal (z-score),[35],3.06
same,glycan array binding signal (z-score),[36],-0.874
same,glycan array binding signal (z-score),[37],2.56
same,glycan array binding signal (z-score),[38],-0.567
same,glycan array binding signal (z-score),[39],1.99
same,glycan array binding signal (z-score),[40],-0.251
same,glycan array binding signal (z-score),[41],1.93
same,glycan array binding signal (z-score),[42],-1.07
same,glycan array binding signal (z-score),[43],-0.34
same,glycan array binding signal (z-score),[44],-0.574
same,glycan array binding signal (z-score),[45],-0.556
same,glycan array binding signal (z-score),[46],-0.362
same,glycan array binding signal (z-score),[47],-0.26
same,glycan array binding signal (z-score),[48],-1.16
same,glycan array binding signal (z-score),[49],-0.893
same,glycan array binding signal (z-score),[50],-0.066
same,glycan array binding signal (z-score),[51],-0.457
same,glycan array binding signal (z-score),[52],-0.177
same,glycan array binding signal (z-score),[53],0.647
same,glycan array binding signal (z-score),[54],-0.807
same,glycan array binding signal (z-score),[55],-0.348
same,glycan array binding signal (z-score),[56],0.722
same,glycan array binding signal (z-score),[57],-0.023
same,glycan array binding signal (z-score),[58],0.166
same,glycan array binding signal (z-score),[59],-1.08
same,glycan array binding signal (z-score),[60],0.475

# At a glance, part of the list above:
binder,measurement,setting,value
B1,glycan array binding signal (z-score),[36],-0.874
same,glycan array binding signal (z-score),[37],2.56
same,glycan array binding signal (z-score),[38],-0.567

# 2 entries from above, as tab-separated lines.
binder	measurement	setting	value
B1	glycan array binding signal (z-score)	[40]	-0.251
same	glycan array binding signal (z-score)	[41]	1.93
